Reference: PubChem BioAssay AID504774 (Drosophila RNAi Screening Center, 2011)
The deposit covers about 23,000 reagents; below is a random part of those that have a named target and a result. 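Values are quantile-normalised luminescence on an arbitrary scale; higher means more cells surviving MMS.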 A plus sign joins genes that one reagent is predicted to hit. Reagent sequences are not shown.

Test: 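Knock-downs that shift viability of MMS-exposed cells relative to untreated ones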 (primary screen)
System: Drosophila Kc167 cells
Reagents: long dsRNA against Drosophila genes, about 0.25 µg dsRNA per well
Time to read-out: about 6 days: 3 days knock-down, then 3 days with or without MMS
Conditions: methyl methanesulphonate 0.004% (w/v) for 3 days after knock-down
Measurement: 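Viability in wells given MMS, read as ATP luminescence, normalised by quantiles plate by plate and averaged across replicates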
Direction: mean viability with MMS and viability with MMS: higher = more surviving cells after MMS

mean viability with MMS,"viability with MMS, replicate 1","viability with MMS, replicate 2",gene,DRSC id
3.55e6,4.18e6,3.89e6,tos,DRSC03624
3.18e6,3.51e6,3.64e6,CG13097,DRSC02199
3.13e6,3.63e6,3.61e6,Polr2H,DRSC11642
3.70e6,4.20e6,4.20e6,GstZ1,DRSC16478
3.62e6,4.06e6,4.13e6,Mps1,DRSC16273
3.54e6,4.05e6,3.97e6,CG3702,DRSC00628
3.56e6,4.11e6,3.95e6,Ptpmeg,DRSC08684
3.50e6,3.81e6,4.12e6,obst-H,DRSC10935
3.47e6,3.80e6,4.05e6,obst-H,DRSC10940
1.88e6,4.04e6,,can,DRSC10664
3.50e6,4.00e6,3.77e6,Mtp,DRSC03216
3.57e6,4.09e6,4.02e6,CG14253,DRSC14748
3.72e6,4.33e6,4.16e6,CG4036,DRSC02735
3.60e6,4.11e6,4.08e6,CG8141,DRSC16387
3.50e6,4.03e6,3.92e6,Imp,DRSC18861
3.61e6,4.47e6,3.80e6,Imp,DRSC20255
3.43e6,3.93e6,3.89e6,betaTub85D,DRSC16910
3.51e6,4.02e6,3.92e6,Pgi,DRSC07507
3.55e6,4.07e6,4.01e6,CG15472,DRSC18055
3.75e6,4.21e6,4.30e6,Dnali1,DRSC16158
3.69e6,4.26e6,4.10e6,CG17786,DRSC15270
3.76e6,4.10e6,4.36e6,Pka-C3,DRSC09402
3.32e6,3.80e6,3.67e6,Pka-C3,DRSC11254
3.29e6,3.83e6,3.58e6,CG2493,DRSC02707
3.52e6,3.90e6,4.09e6,CG12517,DRSC02173
3.63e6,4.22e6,4.00e6,CG32445,DRSC11678
3.68e6,4.29e6,4.03e6,fz2,DRSC09595
3.42e6,3.85e6,3.88e6,fz2,DRSC10087
3.57e6,4.10e6,3.99e6,fz2,DRSC11349
3.36e6,3.81e6,3.75e6,mmd,DRSC19672
3.52e6,4.00e6,4.00e6,mmd,DRSC19673
3.53e6,4.01e6,4.01e6,mmd,DRSC20161
3.39e6,3.85e6,3.86e6,mmd,DRSC23042
3.50e6,4.08e6,3.86e6,NP15.6,DRSC16756
3.44e6,3.93e6,3.83e6,Jhbp3,DRSC12247
3.49e6,3.92e6,3.97e6,CG13029,DRSC09909
3.58e6,4.07e6,4.03e6,CG32706 + CG6999,DRSC18412
3.46e6,3.89e6,3.97e6,CNMaR,DRSC08992
3.64e6,4.07e6,4.14e6,CNMaR,DRSC10224
3.51e6,4.05e6,3.89e6,Septin5,DRSC06843
2.76e6,3.50e6,3.50e6,RpS26,DRSC03420
3.64e6,4.09e6,4.20e6,mRpL11,DRSC15482
3.29e6,3.61e6,3.71e6,cup,DRSC03516
3.54e6,4.04e6,4.00e6,FBXO11,DRSC16497
3.39e6,3.96e6,3.78e6,Tbcc,DRSC00223
3.62e6,4.08e6,4.09e6,CG11262,DRSC09831

A run of entries from the list above, for reference:
mean viability with MMS,"viability with MMS, replicate 1","viability with MMS, replicate 2",gene,DRSC id
3.55e6,4.07e6,4.01e6,CG15472,DRSC18055
3.75e6,4.21e6,4.30e6,Dnali1,DRSC16158
3.69e6,4.26e6,4.10e6,CG17786,DRSC15270
3.76e6,4.10e6,4.36e6,Pka-C3,DRSC09402
3.32e6,3.80e6,3.67e6,Pka-C3,DRSC11254
3.29e6,3.83e6,3.58e6,CG2493,DRSC02707
3.52e6,3.90e6,4.09e6,CG12517,DRSC02173
3.63e6,4.22e6,4.00e6,CG32445,DRSC11678
